Results as given in patent publication US9254299B2, “Administration of hypoxia activated prodrugs in combination with Chk1 inhibitors for treating cancer” (THRESHOLD PHARMACEUTICALS, INC., priority 2011, dated 2016).
Some entries share one result that the patent states for a list of compounds.

System: HT29 cells
Assay: Single-cell electrophoresis Comet assay
Assay type: cell-based
Conditions: HT29, 24 hr, TH-302 10 μM with air; 2.5 μM with 0.1% O2

**Q.** `Cn1c(COP(=O)(NCCBr)NCCBr)cnc1[N+](=O)[O-]` [TH-302] was tested. Which olive tail moment did it give?
**A.** The olive tail moment was 0.1 to 0.3.
